For 25 targets, log2 fold change results are on record in the supplement of paper PMC10849652.

The chains behind the UniProt entries cited, without tags or fusion partners. Where a name states a change or a piece, a line headed by the entry shows the natural chain unless it says otherwise.
UniProt Q9BT25: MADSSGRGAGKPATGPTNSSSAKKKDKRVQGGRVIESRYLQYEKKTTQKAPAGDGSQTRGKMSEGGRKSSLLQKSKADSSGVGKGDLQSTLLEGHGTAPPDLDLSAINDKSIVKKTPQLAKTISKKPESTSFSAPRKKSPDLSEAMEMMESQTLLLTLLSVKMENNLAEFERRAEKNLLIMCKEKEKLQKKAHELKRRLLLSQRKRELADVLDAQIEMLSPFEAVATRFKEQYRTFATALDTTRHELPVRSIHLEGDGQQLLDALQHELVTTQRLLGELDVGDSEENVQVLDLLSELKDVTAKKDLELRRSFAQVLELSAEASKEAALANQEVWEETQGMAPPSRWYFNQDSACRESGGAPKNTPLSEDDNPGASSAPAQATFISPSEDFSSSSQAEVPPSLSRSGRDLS
UniProt Q9Y450, whole entry, looked up: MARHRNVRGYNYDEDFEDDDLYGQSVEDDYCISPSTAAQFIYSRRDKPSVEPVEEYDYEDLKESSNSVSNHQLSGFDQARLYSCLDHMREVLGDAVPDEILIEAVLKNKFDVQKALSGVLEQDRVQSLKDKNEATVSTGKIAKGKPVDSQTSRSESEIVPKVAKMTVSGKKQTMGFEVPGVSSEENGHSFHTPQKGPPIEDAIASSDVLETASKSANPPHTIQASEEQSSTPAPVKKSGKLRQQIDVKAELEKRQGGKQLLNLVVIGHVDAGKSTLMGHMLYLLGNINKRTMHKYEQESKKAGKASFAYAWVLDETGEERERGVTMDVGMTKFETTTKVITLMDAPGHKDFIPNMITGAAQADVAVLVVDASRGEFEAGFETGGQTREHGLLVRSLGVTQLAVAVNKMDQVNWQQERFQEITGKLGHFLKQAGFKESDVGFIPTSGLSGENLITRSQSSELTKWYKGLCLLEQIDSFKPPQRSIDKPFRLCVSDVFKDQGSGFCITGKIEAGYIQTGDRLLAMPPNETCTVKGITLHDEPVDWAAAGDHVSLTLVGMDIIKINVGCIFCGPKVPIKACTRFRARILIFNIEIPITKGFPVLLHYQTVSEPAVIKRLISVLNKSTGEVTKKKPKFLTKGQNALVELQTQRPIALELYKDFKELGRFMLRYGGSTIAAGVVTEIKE
UniProt P32780: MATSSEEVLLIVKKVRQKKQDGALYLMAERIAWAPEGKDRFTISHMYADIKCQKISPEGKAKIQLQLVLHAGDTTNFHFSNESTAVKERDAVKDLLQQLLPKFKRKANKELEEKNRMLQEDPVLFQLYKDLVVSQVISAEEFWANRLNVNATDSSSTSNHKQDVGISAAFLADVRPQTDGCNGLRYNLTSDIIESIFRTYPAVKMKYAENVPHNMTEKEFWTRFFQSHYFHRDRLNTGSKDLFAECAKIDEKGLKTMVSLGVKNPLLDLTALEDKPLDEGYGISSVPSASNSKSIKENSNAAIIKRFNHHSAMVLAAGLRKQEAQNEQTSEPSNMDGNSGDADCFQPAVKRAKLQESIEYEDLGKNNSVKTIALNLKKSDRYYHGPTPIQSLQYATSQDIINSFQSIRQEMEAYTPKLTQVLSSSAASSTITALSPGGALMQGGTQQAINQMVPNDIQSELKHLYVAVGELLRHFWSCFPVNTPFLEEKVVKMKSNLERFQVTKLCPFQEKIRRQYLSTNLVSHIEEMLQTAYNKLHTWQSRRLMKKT
UniProt Q8TAA5: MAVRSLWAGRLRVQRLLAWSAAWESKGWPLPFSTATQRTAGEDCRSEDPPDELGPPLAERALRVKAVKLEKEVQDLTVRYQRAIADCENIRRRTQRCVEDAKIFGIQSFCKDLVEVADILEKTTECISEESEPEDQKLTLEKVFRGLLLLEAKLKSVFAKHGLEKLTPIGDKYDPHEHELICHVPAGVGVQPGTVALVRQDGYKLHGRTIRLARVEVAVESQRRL
UniProt P56524: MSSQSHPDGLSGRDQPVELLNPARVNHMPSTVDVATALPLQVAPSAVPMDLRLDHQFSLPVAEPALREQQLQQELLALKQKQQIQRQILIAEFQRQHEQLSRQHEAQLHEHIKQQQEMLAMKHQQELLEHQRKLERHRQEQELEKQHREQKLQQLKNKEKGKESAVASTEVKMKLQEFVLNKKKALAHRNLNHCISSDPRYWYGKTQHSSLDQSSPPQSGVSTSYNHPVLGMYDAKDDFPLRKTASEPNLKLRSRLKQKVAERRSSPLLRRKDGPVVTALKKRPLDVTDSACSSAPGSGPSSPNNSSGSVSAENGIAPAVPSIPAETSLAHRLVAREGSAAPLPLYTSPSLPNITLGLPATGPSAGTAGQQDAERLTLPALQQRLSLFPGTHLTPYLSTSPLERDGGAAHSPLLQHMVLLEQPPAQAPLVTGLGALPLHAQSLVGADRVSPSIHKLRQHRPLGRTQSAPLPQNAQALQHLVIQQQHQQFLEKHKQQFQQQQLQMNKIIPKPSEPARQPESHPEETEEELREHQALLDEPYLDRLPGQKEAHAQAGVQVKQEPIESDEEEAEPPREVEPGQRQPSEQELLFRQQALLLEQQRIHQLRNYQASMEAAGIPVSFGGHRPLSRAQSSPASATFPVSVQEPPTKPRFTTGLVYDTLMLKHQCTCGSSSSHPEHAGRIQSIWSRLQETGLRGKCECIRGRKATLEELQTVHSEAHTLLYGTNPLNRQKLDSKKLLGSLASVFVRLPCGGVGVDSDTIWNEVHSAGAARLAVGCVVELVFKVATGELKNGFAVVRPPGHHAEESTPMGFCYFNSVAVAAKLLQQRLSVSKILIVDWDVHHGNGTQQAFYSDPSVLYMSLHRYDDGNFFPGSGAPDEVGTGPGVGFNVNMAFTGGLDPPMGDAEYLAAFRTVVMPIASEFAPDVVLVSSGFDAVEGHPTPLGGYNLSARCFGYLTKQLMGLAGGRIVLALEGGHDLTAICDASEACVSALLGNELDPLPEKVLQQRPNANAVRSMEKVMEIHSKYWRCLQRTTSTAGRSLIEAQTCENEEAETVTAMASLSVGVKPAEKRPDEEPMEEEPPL
UniProt Q8TD30: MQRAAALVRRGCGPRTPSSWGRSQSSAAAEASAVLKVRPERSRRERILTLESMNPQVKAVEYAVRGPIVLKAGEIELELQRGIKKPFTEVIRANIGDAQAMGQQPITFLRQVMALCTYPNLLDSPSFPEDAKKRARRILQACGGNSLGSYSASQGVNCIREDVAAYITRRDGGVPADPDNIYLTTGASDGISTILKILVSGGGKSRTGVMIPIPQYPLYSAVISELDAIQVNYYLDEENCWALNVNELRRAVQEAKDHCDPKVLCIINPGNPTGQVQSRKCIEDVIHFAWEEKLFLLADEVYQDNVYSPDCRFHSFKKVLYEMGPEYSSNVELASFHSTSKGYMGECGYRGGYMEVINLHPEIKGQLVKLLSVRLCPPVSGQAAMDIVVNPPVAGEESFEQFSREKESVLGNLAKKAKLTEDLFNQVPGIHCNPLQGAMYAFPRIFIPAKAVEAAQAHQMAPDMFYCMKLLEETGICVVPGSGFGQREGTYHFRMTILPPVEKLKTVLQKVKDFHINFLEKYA
UniProt P14317: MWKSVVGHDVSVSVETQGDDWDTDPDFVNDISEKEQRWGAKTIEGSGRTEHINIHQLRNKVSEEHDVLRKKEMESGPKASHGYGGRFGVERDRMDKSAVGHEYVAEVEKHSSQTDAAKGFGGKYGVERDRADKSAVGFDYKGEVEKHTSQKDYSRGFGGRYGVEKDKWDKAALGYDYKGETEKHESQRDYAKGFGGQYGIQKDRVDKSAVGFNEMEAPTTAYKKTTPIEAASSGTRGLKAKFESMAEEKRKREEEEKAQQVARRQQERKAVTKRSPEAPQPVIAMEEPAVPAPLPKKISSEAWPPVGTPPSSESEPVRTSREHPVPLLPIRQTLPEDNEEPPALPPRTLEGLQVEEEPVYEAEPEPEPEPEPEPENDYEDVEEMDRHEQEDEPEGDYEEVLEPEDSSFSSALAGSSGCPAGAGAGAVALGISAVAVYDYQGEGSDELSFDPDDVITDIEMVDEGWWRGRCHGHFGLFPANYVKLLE
UniProt Q9UBQ7: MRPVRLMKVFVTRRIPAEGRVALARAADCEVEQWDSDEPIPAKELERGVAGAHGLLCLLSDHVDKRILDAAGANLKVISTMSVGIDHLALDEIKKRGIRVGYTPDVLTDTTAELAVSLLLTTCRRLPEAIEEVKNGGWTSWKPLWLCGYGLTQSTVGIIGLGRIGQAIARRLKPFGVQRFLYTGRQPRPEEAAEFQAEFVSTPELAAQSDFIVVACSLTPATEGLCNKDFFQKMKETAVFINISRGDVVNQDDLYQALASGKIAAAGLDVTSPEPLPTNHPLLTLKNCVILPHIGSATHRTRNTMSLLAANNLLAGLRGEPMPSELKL
UniProt P16401, whole entry, looked up: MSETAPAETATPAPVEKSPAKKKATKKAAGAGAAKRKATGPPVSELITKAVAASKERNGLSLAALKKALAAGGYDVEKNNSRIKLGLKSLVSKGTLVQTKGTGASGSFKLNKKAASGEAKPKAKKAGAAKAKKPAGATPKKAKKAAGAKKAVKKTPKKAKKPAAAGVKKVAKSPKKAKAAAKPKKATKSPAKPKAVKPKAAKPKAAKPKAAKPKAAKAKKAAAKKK
UniProt O00165, whole entry, looked up: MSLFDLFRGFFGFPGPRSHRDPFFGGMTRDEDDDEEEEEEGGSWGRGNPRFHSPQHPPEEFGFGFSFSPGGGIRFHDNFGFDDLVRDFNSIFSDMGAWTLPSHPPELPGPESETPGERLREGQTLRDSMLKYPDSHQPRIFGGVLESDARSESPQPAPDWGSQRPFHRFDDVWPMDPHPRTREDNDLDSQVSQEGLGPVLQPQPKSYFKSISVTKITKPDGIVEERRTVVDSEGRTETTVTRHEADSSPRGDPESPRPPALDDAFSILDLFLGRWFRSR
UniProt P51858: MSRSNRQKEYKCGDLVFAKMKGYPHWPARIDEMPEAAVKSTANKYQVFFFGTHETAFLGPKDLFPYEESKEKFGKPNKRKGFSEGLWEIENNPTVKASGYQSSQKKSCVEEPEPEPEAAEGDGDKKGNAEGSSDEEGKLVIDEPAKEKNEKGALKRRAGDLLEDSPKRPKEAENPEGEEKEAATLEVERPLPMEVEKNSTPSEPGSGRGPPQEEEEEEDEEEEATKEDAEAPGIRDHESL
UniProt P02042: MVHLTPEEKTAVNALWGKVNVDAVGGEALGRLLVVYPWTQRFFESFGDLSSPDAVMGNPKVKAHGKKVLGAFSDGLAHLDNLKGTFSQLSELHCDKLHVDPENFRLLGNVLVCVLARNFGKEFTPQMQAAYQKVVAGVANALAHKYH
UniProt O75367, whole entry, looked up: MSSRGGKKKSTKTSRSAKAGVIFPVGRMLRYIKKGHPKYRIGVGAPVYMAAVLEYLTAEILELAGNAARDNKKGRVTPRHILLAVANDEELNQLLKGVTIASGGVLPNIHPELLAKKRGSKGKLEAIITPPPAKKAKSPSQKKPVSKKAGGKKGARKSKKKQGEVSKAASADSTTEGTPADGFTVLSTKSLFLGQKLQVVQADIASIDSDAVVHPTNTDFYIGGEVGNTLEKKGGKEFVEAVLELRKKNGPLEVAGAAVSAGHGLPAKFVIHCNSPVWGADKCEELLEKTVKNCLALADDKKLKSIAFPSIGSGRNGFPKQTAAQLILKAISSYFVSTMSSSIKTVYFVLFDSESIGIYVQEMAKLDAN
UniProt P0C0S5, whole entry, looked up: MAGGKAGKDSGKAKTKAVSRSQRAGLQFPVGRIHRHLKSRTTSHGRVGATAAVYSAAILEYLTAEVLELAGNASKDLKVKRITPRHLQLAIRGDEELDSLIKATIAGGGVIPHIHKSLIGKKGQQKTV
UniProt Q13889: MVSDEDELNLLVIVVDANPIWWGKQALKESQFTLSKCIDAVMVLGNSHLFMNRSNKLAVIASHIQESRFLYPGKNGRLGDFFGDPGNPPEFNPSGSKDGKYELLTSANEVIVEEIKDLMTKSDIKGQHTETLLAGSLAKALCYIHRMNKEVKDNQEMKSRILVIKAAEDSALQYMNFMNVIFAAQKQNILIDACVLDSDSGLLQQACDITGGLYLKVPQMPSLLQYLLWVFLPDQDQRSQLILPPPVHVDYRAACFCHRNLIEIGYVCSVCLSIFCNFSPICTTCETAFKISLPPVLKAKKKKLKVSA
UniProt P62993, whole entry, looked up: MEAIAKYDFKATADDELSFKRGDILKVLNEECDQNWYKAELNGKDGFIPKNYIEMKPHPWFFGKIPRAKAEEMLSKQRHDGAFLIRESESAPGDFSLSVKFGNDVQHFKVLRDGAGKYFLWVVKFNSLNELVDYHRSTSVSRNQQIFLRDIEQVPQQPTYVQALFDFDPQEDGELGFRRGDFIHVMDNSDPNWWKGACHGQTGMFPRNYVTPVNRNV
UniProt A4D1E9: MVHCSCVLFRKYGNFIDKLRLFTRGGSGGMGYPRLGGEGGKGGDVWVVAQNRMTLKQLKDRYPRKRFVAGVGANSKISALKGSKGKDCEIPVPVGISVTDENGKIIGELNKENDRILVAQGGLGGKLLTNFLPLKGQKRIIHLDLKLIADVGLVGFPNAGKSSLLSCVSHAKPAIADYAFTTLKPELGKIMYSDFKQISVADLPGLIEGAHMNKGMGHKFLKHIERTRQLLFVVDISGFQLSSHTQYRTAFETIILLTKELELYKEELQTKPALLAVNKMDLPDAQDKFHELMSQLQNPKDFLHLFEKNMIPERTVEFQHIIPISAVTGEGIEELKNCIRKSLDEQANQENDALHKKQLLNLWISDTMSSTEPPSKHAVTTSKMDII

Common to all, as to test: log2 fold change, soluble protein after heating vs DMSO (PISA); higher = thermal stabilisation; K562 lysate, 10 uM; active = over 0.2 and 3.5 SD of the protein, either way, in both replicates (recomputed)
Compound in assay [1]: NCC(=O)Nc1ccc(-n2nc(C(F)(F)F)cc2-c2ccc3c(ccc4ccccc43)c2)cc1
A digest of the protocol: (§1)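 Quantification was by TMTpro 16plex LC-MS/MS with equalised channel sums, applied to the supernatant after 21,000xg for 90 min. Samples were crude K562 extract at 1 mg/mL protein in PBS pH 7.4 with 1 mM MgCl2, treated with 10 μM compound for 30 min, heated for 3 min across 48°C-58°C, pooled and brought to 0.5% NP-40 at 4°C. Values are log-two fold changes in thermal stability relative to solvent controls, from duplicates.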

Compound in the next assay: O=C(CCCCCCC(=O)Nc1ccccc1)NO [vorinostat]
The method in brief: as §1

Compound in the next assay: O=C(O)c1ccc2c(c1)nc(Nc1cccc(Cl)c1)c1ccncc12 [silmitasertib]
The method in brief:
as §1

Compound in assay [2]: O=C1NC(=O)C(c2cnc3ccccn23)=C1c1cn2c3c(cc(F)cc13)CN(C(=O)N1CCCCC1)CC2
A digest of the protocol: as §1

Compound in the next assay: c1cn2cc(-c3ccc4cn[nH]c4c3)nc(Nc3ccc(N4CCOCC4)cc3)c2n1 [entospletinib]
A digest of the protocol: as §1

Some of the results follow.

With HAUS8 (UniProt Q9BT25), the log2 fold change is inactive: 0.083 in assay [1]; active: -0.38 in the assay with vorinostat; inactive: 0.022 with silmitasertib; inactive: 0.018 in assay [2]; inactive: -0.051 with entospletinib.
The like results for HBS1L (UniProt Q9Y450) were, in that order, inactive: -0.008, inactive: -0.212, inactive: 0.038, inactive: -0.005 and inactive: 0.028.
Turning to GTPBP1 (UniProt O00178), the log2 fold change was inactive: 0.003 in assay [1]; inactive: -0.028 with vorinostat; inactive: 0.019 in the assay with silmitasertib; inactive: -0.009 in assay [2]; inactive: 0.008 with entospletinib.
In the same order, the values of GTF2H1 (UniProt P32780) are inactive: -0.019, active: -0.412, inactive: 0, inactive: -0.024 and inactive: 0.035.
For the target HBZ, A0A494C057, the log2 fold change in assay [1] is inactive: -0.126.
Take GRPEL2 (UniProt Q8TAA5): the log2 fold change in assay [1] was inactive: 0.091; in the assay with vorinostat it was inactive: -0.182; with silmitasertib, inactive: -0.082; in assay [2], inactive: -0.04; with entospletinib it was inactive: 0.034.
The like results for HDAC4 (UniProt P56524) were, in that order, inactive: -0.024, inactive: 0.019, inactive: -0.066, inactive: -0.045 and inactive: -0.008.
Consider GPT2 (UniProt Q8TD30), for which the log2 fold change in assay [1] was inactive: -0.127; with vorinostat, inactive: -0.254; with silmitasertib it was inactive: 0.08; in assay [2], inactive: -0.026; with entospletinib, inactive: -0.068.
In the same order, the values of HCLS1 (UniProt P14317) are inactive: 0.008, inactive: 0.087, inactive: -0.005, inactive: -0.029 and inactive: 0.022.
In the same order, the values of GRHPR (UniProt Q9UBQ7) are inactive: 0.02, inactive: -0.163, inactive: -0.016, inactive: 0.015 and inactive: 0.028.
On to HAUS3 (UniProt Q68CZ6), for which the log2 fold change in assay [1] was inactive: 0.007; in the assay with vorinostat it was active: -0.618; in the assay with silmitasertib it was inactive: -0.009; in assay [2] it was inactive: 0.004; with entospletinib it was inactive: 0.007.
As to H1-5 (UniProt P16401), the log2 fold change in assay [1] is inactive: 0.008; with vorinostat it was inactive: 0.154; with silmitasertib, inactive: -0.024; in assay [2] it was inactive: 0.02; with entospletinib, inactive: -0.004.
In the same order, the values of HAX1 (UniProt O00165) are inactive: 0.044, inactive: -0.054, inactive: 0.027, inactive: -0.003 and inactive: -0.007.
Take HDGF (UniProt P51858): the log2 fold change in assay [1] was inactive: 0.024; in the assay with vorinostat, inactive: 0.106; with silmitasertib, inactive: -0.018; in assay [2], inactive: -0.02; with entospletinib, inactive: -0.01.
The like results for HBD (UniProt P02042) were, in that order, inactive: -0.01, inactive: 0.068, inactive: -0.057, inactive: 0.001 and inactive: -0.072.
In the same order, the values of H2AFY (UniProt O75367) are inactive: 0.008, inactive: 0.142, inactive: -0.029, inactive: -0.02 and inactive: 0.079.
In the same order, the values of H2AZ1 (UniProt P0C0S5) are inactive: 0.061, inactive: 0.099, inactive: 0.021, inactive: -0.015 and inactive: 0.013.
Take GTF2H3 (UniProt Q13889): the log2 fold change is inactive: -0.014 in assay [1]; inactive: -0.022 with vorinostat; inactive: -0.033 in the assay with silmitasertib; inactive: 0.016 in assay [2]; inactive: 0.042 with entospletinib.
In the same order, the values of GUSB (UniProt P08236) are inactive: 0.021, inactive: 0.043, inactive: 0.015, inactive: -0.026 and inactive: -0.029.
In the same order, the values of GRB2 (UniProt P62993) are inactive: -0.003, inactive: 0.082, inactive: -0.022, inactive: -0.026 and inactive: 0.007.
The like results for GSTP1 (UniProt P09211) were, in that order, inactive: -0.011, active: -0.352, inactive: 0.127, inactive: 0.04 and inactive: -0.001.
As for HAUS6 (UniProt Q7Z4H7), the log2 fold change in assay [1] was inactive: -0.057; with vorinostat, active: -0.3; in the assay with silmitasertib, inactive: 0.014; in assay [2], inactive: 0.007; with entospletinib, inactive: 0.015.
The like results for HDAC6 (UniProt Q9UBN7) were, in that order, inactive: -0.039, active: 0.513, inactive: 0.016, inactive: -0.047 and inactive: 0.007.
For the target GTPBP10 (UniProt A4D1E9), the log2 fold change in assay [1] was inactive: 0.02; with vorinostat it was inactive: -0.085; with silmitasertib, inactive: 0.138; in assay [2], inactive: -0.021; with entospletinib, inactive: 0.028.
In the same order, the values of HEATR3 (UniProt Q7Z4Q2) are inactive: -0.03, active: -0.5, inactive: 0.013, inactive: -0.017 and inactive: -0.006.
